Some entries share one result that the patent states for a list of compounds. Some ranges recur; such a range may be that of the whole group of compounds.
biological target: T1, B-Raf (V599E or Wild Type) (Homo sapiens, UniProt P15056); assay: B-Raf Flash Plate Assay; format: biochemical; conditions: tested at a concentration of 10 μM
T1 construct: Enzymatically active wild-type B-Raf was purchased from Upstate (cat# 14-530); Enzymatically active mutant B-Raf(V599E) was purchased from Upstate (cat# 14-557)

Amino acid sequences for entries named in this document (tags omitted).
UniProt P15056, whole entry, stated change not applied: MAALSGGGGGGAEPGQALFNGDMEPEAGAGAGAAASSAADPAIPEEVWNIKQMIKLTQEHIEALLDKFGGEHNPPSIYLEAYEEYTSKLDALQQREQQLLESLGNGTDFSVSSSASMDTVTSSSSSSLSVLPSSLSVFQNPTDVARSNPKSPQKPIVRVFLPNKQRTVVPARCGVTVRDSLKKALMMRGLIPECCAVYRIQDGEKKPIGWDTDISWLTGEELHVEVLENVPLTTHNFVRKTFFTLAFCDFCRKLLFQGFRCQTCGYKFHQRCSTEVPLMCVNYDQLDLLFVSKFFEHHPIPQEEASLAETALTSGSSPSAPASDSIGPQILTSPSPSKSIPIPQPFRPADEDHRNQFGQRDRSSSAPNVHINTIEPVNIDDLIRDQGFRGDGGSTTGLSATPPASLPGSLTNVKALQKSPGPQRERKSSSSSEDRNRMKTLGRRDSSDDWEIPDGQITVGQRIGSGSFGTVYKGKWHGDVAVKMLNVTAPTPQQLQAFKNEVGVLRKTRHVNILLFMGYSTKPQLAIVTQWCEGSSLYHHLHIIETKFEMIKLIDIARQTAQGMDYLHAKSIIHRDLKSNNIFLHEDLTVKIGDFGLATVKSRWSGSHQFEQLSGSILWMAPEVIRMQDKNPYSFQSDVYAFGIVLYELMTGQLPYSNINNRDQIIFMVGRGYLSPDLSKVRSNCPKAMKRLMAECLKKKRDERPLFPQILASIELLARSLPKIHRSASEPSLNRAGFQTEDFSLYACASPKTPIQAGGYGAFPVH

Compound	inhibition
O=C(NCCc1cccc(Oc2ccnc(C3=NCCCN3)c2)c1)c1ccc(Cl)c(C(F)(F)F)c1 [Compound I-153, 4-chloro-N-[2-(3-{[2-(1,4,5,6-tetrahydropyrimidin-2-yl)pyridin-4-yl]oxy}phenyl)-ethyl]-3-(trifluoromethyl)benzamide]	40-68%
CC1CN=C(c2cc(Oc3cccc(CCNC(=O)c4cc(Cl)cc(Cl)c4)c3)ccn2)N1 (stereo not shown) [Compound I-154, 3,5-dichloro-N-[2-(3-{[2-(5-methyl-4,5-dihydro-1H-imidazol-2-yl)pyridin-4-yl]-oxy}phenyl)ethyl]benzamide]	40-68%
CC(C)(C)c1cccc(C(=O)NCCc2cccc(Oc3ccnc(-c4ncc(CO)[nH]4)c3)c2)c1 [Compound I-155, 3-tert-butyl-N-{2-[3-({2-[5-(hydroxymethyl)-1H-imidazol-2-yl]pyridin-4-yl}-oxy)phenyl]ethyl}benzamide]	40-68%
Cc1cccc(C(=O)NCCc2cccc(Oc3ccnc(-c4ncc[nH]4)c3)c2)c1 [Compound I-156, N-[2-(3-{[2-(1H-imidazol-2-yl)pyridin-4-yl]oxy}phenyl)ethyl]-3-methylbenzamide]	40-68%
O=C(NCCc1cccc(Oc2ccnc(-c3ncc(CN4CCCC4)[nH]3)c2)c1)c1cc(C(F)(F)F)ccc1F [Compound I-157, 2-fluoro-N-{2-[3-({2-[5-(pyrrolidin-1-ylmethyl)-1H-imidazol-2-yl]pyridin-4-yl}-oxy)phenyl]ethyl}-5-(trifluoromethyl)benzamide]	40-68%
CN(C)CCNC(=O)c1cnc(-c2cc(Oc3cccc(CCNC(=O)c4cccc(Br)c4)c3)ccn2)[nH]1 [Compound I-158, 2-[4-(3-{2-[(3-bromobenzoyl)amino]ethyl}phenoxy)pyridin-2-yl]-N-[2-(dimethylamino)ethyl]-1H-imidazole-5-carboxamide]	40-68%
O=C(NCCc1cccc(Oc2ccnc(-c3ncc(C(F)(F)F)[nH]3)c2)c1)c1cccc(Cl)c1 [Compound I-159, 3-chloro-N-{2-[3-({2-[5-(trifluoromethyl)-1H-imidazol-2-yl]pyridin-4-yl}-oxy)phenyl]ethyl}benzamide]	40-68%
Cc1cnc(-c2cc(Oc3cccc(CCNC(=O)c4cc(Cl)cc(Cl)c4)c3)ccn2)[nH]1 [Compound I-160, 3,5-dichloro-N-[2-(3-{[2-(5-methyl-1H-imidazol-2-yl)pyridin-4-yl]oxy}phenyl)-ethyl]benzamide]	40-68%
O=C(NCCc1cccc(Oc2ccnc(-c3ncc[nH]3)c2)c1)c1ccc(F)c(C(F)(F)F)c1 [Compound I-161, 4-fluoro-N-[2-(3-{[2-(1H-imidazol-2-yl)pyridin-4-yl]oxy}phenyl)ethyl]-3-(trifluoromethyl)benzamide]	40-68%
CC(C)(C)c1cccc(C(=O)NCCc2cccc(Oc3ccnc(-c4ncc[nH]4)c3)c2)c1 [Compound I-162, 3-tert-butyl-N-[2-(3-{[2-(1H-imidazol-2-yl)pyridin-4-yl]oxy}phenyl)ethyl]-benzamide]	40-68%
CC(=O)Nc1cc(Oc2cccc(CCNC(=O)c3cc(CN)cc(C(C)(C)C)c3)c2)ccn1 [Compound I-163, N-[2-(3-{[2-(acetylamino)pyridin-4-yl]oxy}phenyl)ethyl]-3-(aminomethyl)-5-tert-butylbenzamide]	40-68%
CNC(=O)c1cc(Oc2cccc(CCNC(=O)c3cc(CN4CCN(C)CC4)cc(C(F)(F)F)c3)c2)ccn1 [Compound I-164, N-methyl-4-[3-(2-{[3-[(4-methylpiperazin-1-yl)methyl]-5-(trifluoromethyl)-benzoyl]amino}ethyl)phenoxy]pyridine-2-carboxamide]	40-68%
CN(C)CCOc1cc(C(=O)NCCc2cccc(Oc3ccnc(C4=NCCN4)c3)c2)cc(C(F)(F)F)c1 [Compound I-165, N-[2-(3-{[2-(4,5-dihydro-1H-imidazol-2-yl)pyridin-4-yl]oxy}phenyl)ethyl]-3-[2-(dimethylamino)ethoxy]-5-(trifluoromethyl)benzamide]	40-68%
CC(=O)Nc1cc(Oc2cccc(CCNC(=O)c3cc(C(C)(C)N)cc(C(F)(F)F)c3)c2)ccn1 [Compound I-166, N-[2-(3-{[2-(acetylamino)pyridin-4-yl]oxy}phenyl)ethyl]-3-(1-amino-1-methylethyl)-5-(trifluoromethyl)benzamide]	40-68%
CNC(=O)c1cc(Oc2cccc(CCNC(=O)c3cc(CN4CCCC4)cc(C(F)(F)F)c3)c2)ccn1 [Compound I-167, N-methyl-4-[3-(2-{[3-(pyrrolidin-1-ylmethyl)-5-(trifluoromethyl)benzoyl]-amino}ethyl)phenoxy]pyridine-2-carboxamide]	40-68%
O=C(NCCc1cccc(Oc2ccnc(NC(=O)C3CC3)c2)c1)c1cccc(C(F)(F)F)c1 [Compound I-168, N-{2-[3-({2-[(cyclopropylcarbonyl)amino]pyridin-4-yl}oxy)phenyl]ethyl}-3-(trifluoromethyl)benzamide]	40-68%
Nc1nccc(Oc2cccc(CCNC(=O)c3cc(C(F)(F)F)ccc3F)c2)n1 [Compound I-169, N-(2-{3-[(2-aminopyrimidin-4-yl)oxy]phenyl}ethyl)-2-fluoro-5-(trifluoromethyl)-benzamide]	40-68%

Compound	inhibition
O=C(NCCc1cccc(Oc2ccnc(N3CCCC3)n2)c1)c1cccc(Cl)c1 [Compound I-170, 3-chloro-N-(2-{3-[(2-pyrrolidin-1-ylpyrimidin-4-yl)oxy]phenyl}ethyl)benzamide]	40-68%
O=C(NCCc1cccc(Oc2ccnc(N3CCOCC3)n2)c1)c1cc(Cl)cc(Cl)c1 [Compound I-171, 3,5-dichloro-N-(2-{3-[(2-morpholin-4-ylpyrimidin-4-yl)oxy]phenyl}ethyl)-benzamide]	40-68%
O=C(NCCc1cccc(Oc2ccnc(NC(=O)C3CC3)c2)c1)c1ccc(F)c(C(F)(F)F)c1 [Compound I-172, N-{2-[3-({2-[(cyclopropylcarbonyl)amino]pyridin-4-yl}oxy)phenyl]ethyl}-4-fluoro-3-(trifluoromethyl)benzamide]	40-68%
CC(C)(C)c1cccc(C(=O)NCCc2cccc(Oc3ccnc(NC(=O)C4CC4)c3)c2)c1 [Compound I-173, 3-tert-butyl-N-{2-[3-({2-[(cyclopropylcarbonyl)amino]pyridin-4-yl}oxy)phenyl]-ethyl}benzamide]	40-68%
O=C(NCCc1cccc(Oc2ccnc(C3=NCC(C(=O)O)N3)c2)c1)c1cc(Cl)cc(Cl)c1 (stereo not shown) [Compound I-174, 2-[4-(3-{2-[(3,5-dichlorobenzoyl)amino]ethyl}phenoxy)pyridin-2-yl]-4,5-dihydro-1H-imidazole-5-carboxylic acid]	40-68%
Cc1cccc(C(=O)NCCc2cccc(Oc3ccnc(C4=NCCN4)c3)c2)c1 [Compound I-175, N-[2-(3-{[2-(4,5-dihydro-1H-imidazol-2-yl)pyridin-4-yl]oxy}phenyl)ethyl]-3-methylbenzamide]	40-68%
CC(=O)Nc1cc(Oc2cccc(CCNC(=O)c3cccc(C)c3)c2)ccn1 [Compound I-176, N-[2-(3-{[2-(acetylamino)pyridin-4-yl]oxy}phenyl)ethyl]-3-methylbenzamide]	40-68%
O=C(NCCc1cccc(Oc2ccnc(C3=NCCN3)c2)c1)c1cc(C(F)(F)F)ccc1F [Compound I-177, N-[2-(3-{[2-(4,5-dihydro-1H-imidazol-2-yl)pyridin-4-yl]oxy}phenyl)ethyl]-2-fluoro-5-(trifluoromethyl)benzamide]	40-68%
CC(=O)Nc1cc(Oc2cccc(CCNC(=O)c3cc(C(F)(F)F)ccc3F)c2)ccn1 [Compound I-178, N-[2-(3-{[2-(acetylamino)pyridin-4-yl]oxy}phenyl)ethyl]-2-fluoro-5-(trifluoromethyl)benzamide]	40-68%
O=C(NCCc1cccc(Oc2ccnc(C3=NCCN3)c2)c1)c1cccc(Br)c1 [Compound I-179, 3-bromo-N-[2-(3-{[2-(4,5-dihydro-1H-imidazol-2-yl)pyridin-4-yl]oxy}phenyl)-ethyl]benzamide]	40-68%
CC(=O)Nc1cc(Oc2cccc(CCNC(=O)c3cccc(Br)c3)c2)ccn1 [Compound I-180, N-[2-(3-{[2-(acetylamino)pyridin-4-yl]oxy}phenyl)ethyl]-3-bromobenzamide]	40-68%
O=C(NCCc1cccc(Oc2ccnc(C3=NCCN3)c2)c1)c1cccc(Cl)c1 [Compound I-181, 3-chloro-N-[2-(3-{[2-(4,5-dihydro-1H-imidazol-2-yl)pyridin-4-yl]oxy}phenyl)-ethyl]benzamide]	40-68%
CC(=O)Nc1cc(Oc2cccc(CCNC(=O)c3cccc(Cl)c3)c2)ccn1 [Compound I-182, N-[2-(3-{[2-(acetylamino)pyridin-4-yl]oxy}phenyl)ethyl]-3-chlorobenzamide]	40-68%
O=C(NCCc1cccc(Oc2ccnc(C3=NCCN3)c2)c1)c1cc(Cl)cc(Cl)c1 [Compound I-183, 3,5-dichloro-N-[2-(3-{[2-(4,5-dihydro-1H-imidazol-2-yl)pyridin-4-yl]-oxy}phenyl)ethyl]benzamide]	40-68%
CC(=O)Nc1cc(Oc2cccc(CCNC(=O)c3cc(Cl)cc(Cl)c3)c2)ccn1 [Compound I-184, N-[2-(3-{[2-(acetylamino)pyridin-4-yl]oxy}phenyl)ethyl]-3,5-dichlorobenzamide]	40-68%
O=C(NCCc1cccc(Oc2ccnc(C3=NCCN3)c2)c1)c1ccc(F)c(C(F)(F)F)c1 [Compound I-185, N-[2-(3-{[2-(4,5-dihydro-1H-imidazol-2-yl)pyridin-4-yl]oxy}phenyl)ethyl]-4-fluoro-3-(trifluoromethyl)benzamide]	40-68%
CC(=O)Nc1cc(Oc2cccc(CCNC(=O)c3ccc(F)c(C(F)(F)F)c3)c2)ccn1 [Compound I-186, N-[2-(3-{[2-(acetylamino)pyridin-4-yl]oxy}phenyl)ethyl]-4-fluoro-3-(trifluoromethyl)benzamide]	40-68%
